From US10894808B2, “Polypeptide ligands specific for plasma kallikrein” (BicycleRD Limited, priority 2013, dated 2021)
For some of these results: Part of at least one peptide drawing is inferred or uncertain, most often the ends. Some entries share one result that the patent states for a list of compounds. *1 amine or outer side, *2 acyl side, *3 side chain or, on linkers, in order; H or OH if unused. Where a SMILES comes first, the peptide text is derived from it. Bridges are numbered along the chain shown (N, C = ends). TBMB = c1c(C[*:1])cc(C[*:3])cc1C[*:2]

Key:
[1] = Plasma stability profiling Method #1 (35% plasma, MALDI-TOF window of detection); assay type: in vitro ADME; conditions: Method #1, 35% rat or human plasma, 37° C., qualitative
Description: A rapid plasma stability profiling assay was developed that employed mass spectrometric detection (MALDI-TOF, Voyager DE, Applied Biosystems) of the parent mass, until the time when the parent peptide mass was no longer observable. Specifically, 200 μM of peptide was incubated in the presence of 35% rat or human plasma (Sera labs, using citrate as anticoagulant) at 37° C., which was supplemented with 1×PBS (derived from a 10×PBS Stock, Sigma). At various time points (i.e. t=0, 3, 24 hrs, henceafter daily up to 10 days), 2 μL of sample was added to 18 μL of 30 mM ammonium bicarbonate in a 1:1 mixture of acetonitrile:H2O. Samples were frozen at −80° C. until the time of analysis. For mass spectrometric analysis that determines the approximate detection window of the peptide, the acetonitrile:H2O-diluted sample of a given time point was spotted directly (0.7 μL) onto the MALDI plate. Matrix (alpha-cyanocinnamic acid, Sigma, prepared as a saturated solution in 1:1 acetonitrile:water containing 0.1% trifluoroacetic acid) was layered over the sample (1 μL). At a similar laser intensity setting on the MALDI TOF, the time could then be determined until parent peptide was no longer detectable. It should be noted that this is a qualitative assay serves to detect relative changes in plasma stability.

[2] = from WO 2013/050616; cited from earlier work
[3] = from WO 2013/050616; cited from earlier work; remark: listed apart in the source

Compound	window of detection of parent peptide [1]	quantitative t1/2 in rat plasma [2]	quantitative t1/2 in human plasma [3]
CC[C@H](C)[C@@H]1NC(=O)[C@H](CC(=O)O)NC(=O)[C@@H]2CCCN2C(=O)[C@H](Cc2ccc(O)cc2)NC(=O)[C@H](Cc2ccc(O)cc2)NC(=O)[C@H](C(C)C)NC(=O)[C@@H]2CSCc3cc(cc(c3)CSC[C@@H](C(=O)N[C@@H](C)C(N)=O)NC1=O)CSC[C@H](NC(=O)[C@H](C)N)C(=O)N[C@@H](CC(N)=O)C(=O)N[C@@H](CC(N)=O)C(=O)N[C@@H](Cc1ccccc1)C(=O)N1CCC[C@H]1C(=O)N[C@@H](Cc1ccccc1)C(=O)N[C@@H](CCCNC(=N)N)C(=O)N2 [06-261] (H-ACNNFPFRCVYYPDICA-NH2; linker 2-9-16 via TBMB; N-terminus assumed)	2 to 3 days	–	–
CC[C@H](C)[C@@H]1NC(=O)[C@H](CC(C)C)NC(=O)[C@H](CC(=O)O)NC(=O)[C@@H]2CSCc3cc(cc(c3)CSC[C@@H](C(=O)N[C@@H](C)C(N)=O)NC(=O)[C@@H]3CCCN3C(=O)CNC(=O)[C@@H]3CCCN3C1=O)CSC[C@H](NC(=O)[C@H](C)N)C(=O)N[C@@H](CCCCN)C(=O)N[C@@H](CC(N)=O)C(=O)N[C@@H](Cc1ccc(O)cc1)C(=O)N[C@@H](Cc1c[nH]c3ccccc13)C(=O)N[C@@H](CC(N)=O)C(=O)N1CCC[C@H]1C(=O)N2 [06-254-02] (H-ACKNYWNPCDLIPGPCA-NH2; linker 2-9-16 via TBMB; N-terminus assumed)	2 to 3 days	–	–
CC(C)C[C@@H]1NC(=O)[C@H](CC(=O)O)NC(=O)[C@H](CCC(N)=O)NC(=O)[C@H](Cc2c[nH]cn2)NC(=O)[C@H](CC(C)C)NC(=O)[C@@H]2CSCc3cc(cc(c3)CSC[C@H](N)C(=O)N[C@@H](CO)C(=O)N[C@@H](Cc3c[nH]c4ccccc34)C(=O)N3CCC[C@H]3C(=O)N[C@@H](C)C(=O)N[C@@H](CCCNC(=N)N)C(=O)N2)CSC[C@@H](C(N)=O)NC1=O [06-34-18, reference compound] (H-CSWPARCLHQDLC-NH2; linker 1-7-13 via TBMB; N-terminus and C-terminus assumed)	–	2.3 h	2 h
